For some assays here: Not every detail of the peptide structures is certain; ends, links or a residue may be inferred. For some assays here: For at least one compound, name, drawing or mass did not settle the structure. No end group written: not given here.
What was measured:
GBM = details: concomitant TMZ and radiation; radiation alone 12 months; cited from earlier work
[1] = system: TMZ-resistant GBM cell lines (G411-TMZr, G532-TMZr, G799-TMZr, G800-TMZr); assay: growth of TMZ-resistant GBM cell lines; format: cell-based, human
GBM532 cells = assay: cell viability of GBM532 cells following peptide treatment; format: cell-based, human; details: increasing peptide concentrations
Source text: GBM532 cells were exposed to increasing concentrations of various peptide treatments. […] The peptide K59-78^TATwas used as a negative control.

[2] = system: GBM cell lines (G411, G532, G508, G799, G800, G744r); assay: mitosis, apoptosis, cell cycle and viability of GBM cell lines after peptide treatment; format: cell-based, human
[3] = system: GBM (G411) orthotopic xenograft; assay: orthotopic GBM xenograft, cannula-mediated intratumoral peptide delivery; format: in vivo, mice

| Compound | GBM patient median survival (GBM) [months] | tumor cell growth of TMZ-resistant GBM cell lines [1] | cell-killing activity (GBM532 cells) | overall viability of multiple GBM cell lines ([2]; G411, G532, G508, G799, G800, G744r) | apoptosis of GBM cells ([2]; in vitro) | cell cycle ability of GBM cells ([2]; in vitro) | mitosis of GBM cells ([2]; in vitro) | GBM growth in orthotopic xenograft model ([3]; G411, intratumoral delivery) | EAG2 expression in xenograft tumors ([3]; in vivo) | apoptosis of GBM cells in xenograft tumors ([3]; in vivo) | killing of invaded GBM cells versus surrounding non-tumoral cells ([3]; tumor-adjacent brain parenchyma) |
| --- | --- | --- | --- | --- | --- | --- | --- | --- | --- | --- | --- |
| Cn1nnc2c(C(N)=O)ncn2c1=O [TMZ, temozolomide] | 15 | but not |  |  |  |  |  |  |  |  |  |
| GRKKRRQRRRPQGSGSGSYAAGKAEVVLGNIIKKKGWRRSSLV [K90-114^TAT] |  |  | Good cell-killing activity | reduced the overall viability | increased apoptosis | decreases cell cycle ability | decreased mitosis | suppressed GBM growth | reduced EAG2 expression | increased apoptosis | induced selective killing of GBM cells |

— patent US20240417439A1, “RECOMBINANT POLYPEPTIDE FOR DISRUPTING INTERACTION OF EAG2 AND KVß2 AND THERAPEUTIC APPLICATIONS THEREOF IN CANCER TREATMENT” (The Hospital for Sick Children, priority 2021, published 2024)
